These results are taken from PubChem BioAssay (NCATS).

Protein sequences, listed by entry. Tags and fused reporters are not part of them.
UniProt P21964, whole entry: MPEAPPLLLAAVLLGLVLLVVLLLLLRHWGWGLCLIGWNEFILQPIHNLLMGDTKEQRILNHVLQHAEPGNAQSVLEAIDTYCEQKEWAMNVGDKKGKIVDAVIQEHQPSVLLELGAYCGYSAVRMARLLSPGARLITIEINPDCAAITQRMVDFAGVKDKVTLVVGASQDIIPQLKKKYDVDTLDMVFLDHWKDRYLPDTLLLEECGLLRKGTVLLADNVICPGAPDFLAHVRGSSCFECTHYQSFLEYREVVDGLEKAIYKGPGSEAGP
UniProt P40261, whole entry: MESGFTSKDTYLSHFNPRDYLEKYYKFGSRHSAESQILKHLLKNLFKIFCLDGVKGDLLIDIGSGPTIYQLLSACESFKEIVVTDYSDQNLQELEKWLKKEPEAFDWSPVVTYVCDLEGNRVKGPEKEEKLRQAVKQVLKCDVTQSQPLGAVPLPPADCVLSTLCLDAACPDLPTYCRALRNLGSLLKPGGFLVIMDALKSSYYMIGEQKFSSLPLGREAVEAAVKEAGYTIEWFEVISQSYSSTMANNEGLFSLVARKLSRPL
UniProt P11086, whole entry: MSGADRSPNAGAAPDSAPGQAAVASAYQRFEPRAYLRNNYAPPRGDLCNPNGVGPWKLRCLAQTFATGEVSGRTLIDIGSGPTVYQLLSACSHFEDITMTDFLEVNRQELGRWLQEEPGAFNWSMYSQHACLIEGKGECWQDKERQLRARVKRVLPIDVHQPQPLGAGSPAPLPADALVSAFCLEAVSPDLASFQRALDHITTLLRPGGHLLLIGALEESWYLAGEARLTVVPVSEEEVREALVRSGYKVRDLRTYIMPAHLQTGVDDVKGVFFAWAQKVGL

Several values for one entry are separate records, joined by “and”; a condition that tells them apart may be missing. Identical values can stand only once. Some of the results follow. Some structures show a salt or complex split into parts, the way the source records it.

A short description of test [1]: qHTS drug screen for cell cycle checkpoint inhibitors in PARPi-resistant BRCA-mutant ovarian cancer cell lines. (AID 1963452). As to conditions: PEO1/OlaR viability, CellTiter-Glo luminescence, 96 h, stronger effect = lower value. The method, boiled down: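 PEO1, PEO4 and PEO1/OlaR ovarian cancer cells, 600 per well, exposed 96 h at 37C to a dilution series. Viability read by CellTiter-Glo luminescence, normalized to DMSO and empty wells; activity summarized as Z-AUC.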
A general note: In qHTS, concentration-response curves come from the screen itself.

A short description of test [2]: qHTS assay for small molecule agonists of retinoid X receptor alpha signaling (AID 588544). Conditions: HEK293T RXRa-UAS-bla, beta-lactamase reporter, 18 h; 530 nm emission.
A short description of test [3]: qHTS assay for small molecule antagonists of retinoid X receptor alpha signaling (AID 588546).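 Note: cells stimulated with 9-cis-retinoic acid as agonist; % is set by controls: 0 for no effect and ±100 for the full control effect.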 Conditions: HEK293T RXRa-UAS-bla, beta-lactamase ratio, antagonist mode; measured here: W530 green channel, cytotoxicity proxy. The method, boiled down: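 Beta-lactamase reporter inhibition, read as CCF4 fluorescence ratio (ex 405, em 460/530 nm) after 2 h at RT. HEK293T UAS-bla cells, 2500/well, were stimulated with 9-cis-RA at 500 or 100 nM final alongside test compound for 18 h at 37 C.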

For test [4], the target named is Catechol O-methyltransferase (Homo sapiens) (UniProt P21964). The experiment in a line: Confirmatory Screen for Target Class Profiling of Small Molecule Inhibitors of Methyltransferases (AID 1745852). As to conditions: MTase-Glo luminescence, SAH detection, recombinant enzyme; measured here: COMT max response; stronger effect = lower value.
In test [5] the target is Nicotinamide N-methyltransferase (Homo sapiens) (UniProt P40261). Described as above. Conditions: MTase-Glo luminescence, SAH detection, recombinant enzyme; measured here: NNMT max response; stronger effect = lower value.
In test [6] the target is Phenylethanolamine N-methyltransferase (Homo sapiens) (UniProt P11086). The test is described as above. As to conditions: MTase-Glo luminescence, SAH detection, recombinant enzyme; measured here: PNMT max response; stronger effect = lower value.
Test [7] can be described thus: qHTS assay for small molecule antagonists of peroxisome proliferator-activated receptor delta signaling (AID 588535).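 Note: cells co-treated with a PPAR-delta agonist as stimulator during compound exposure.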 As to conditions: HEK293T PPARd-UAS-bla, beta-lactamase FRET ratio, 18 h; 460 nm channel.
Test [8] can be described thus: qHTS Assay for Lipid Storage Modulators (AID 1519). As to conditions: Drosophila S3 cells, BODIPY lipid droplet/cell ratio, laser cytometry, cells loaded with oleic acid.
Test [9] can be described thus: Nrf2 qHTS screen for inhibitors: Validation (AID 493153). As to conditions: A549 ARE-Fluc reporter, 18-24 h; measured here: cytotoxicity max response. The method, boiled down: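 Concentration-response test in A549 ARE_Fluc reporter cells (5% FBS OPTI-MEM), compound exposure 18-24 h at 37°C, 5% CO2. Cell viability measured first by CellTiter-Fluor fluorescence; ARE-driven luciferase luminescence then measured as Nrf2 activity.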

Setting [10] is: measured here: PEO1 parental Z-AUC.
Where [11] appears, read: measured here: cell count channel max response.
Where [12] appears, read: measured here: lipid channel max response.

Take `CN(C)C1(c2ccccc2)CCC2(CC1)OCCc1c2[nH]c2ccc(F)cc12` (stereo not given): the figures for the Z-AUC in test [1] (setting [10]) and in test [1] (measured here: PEO4 Z-AUC) were 0.0539 and 0.31, respectively.

Take `CN(N=O)C(=N)N[N+](=O)[O-]`: the values for the max response in test [2] and in [3] were 11.2% and -3.92%, respectively.

Regarding `O=[N+]([O-])[O-].[NH4+]`, the max response in test [2] was -9.95%; in test [3] it was -2.85%.

With `CC(C)OP(=S)(OC(C)C)SCCNS(=O)(=O)c1ccccc1`, the max response in test [3] was 11.4%.

As for `CCn1c(=O)n([C@@H]2CCN(CC3CCCCCCC3)C[C@H]2CO)c2ccccc21`, the values for the Z-AUC in test [1] (setting [10]) and in test [1] (measured here: PEO4 Z-AUC) were -0.399 and 0.46, respectively.

In the case of `Cc1ccc([N+](=O)[O-])c([N+](=O)[O-])c1`, the max response in test [2] is 3.74% and 22.4%; in test [3], 7.33% and 17.7%.

Consider `C/C1=C2N=C(/C=C3N=C(/C(C)=C4\N=C(C(CC(N)=O)C4(C)CCC(=O)NCC(C)OP(=O)([O-])OC4C(CO)OC(n5cnc6cc(C)c(C)cc65)C4O)C4(C)N=C1C(CCC(N)=O)C4(C)CC(N)=O)C(CCC(N)=O)C\3(C)C)C(CCC(N)=O)C/2(C)CC(N)=O.[C-]#N.[Co]` (stereo not given), for which the activity is -30.2% in [4], -25.9% in [5] and -28.1% in [6].

Turning to `Cc1cc([N+](=O)[O-])cc([N+](=O)[O-])c1O`, the max response is -0.203% in test [7]; 13.7% in test [2]; -9.4% and 4.83% in [3].

As for `OCCSCCO`, the max response is 10.6% in test [8] (setting [11]) and 15.7% in test [8] (setting [12]).

With `CN(C(=O)Cc1ccc(Cl)c(Cl)c1)[C@H]1CCCC[C@H]1N1CCCC1`, the activity was -2.88% in test [4], 0.547% in [5] and 0.274% in [6].

Take `CCOP(=O)(CC)OCC`: the results for the max response in test [2] and in [3] were -24.1% and -0.685%, respectively.

Regarding `N#[O+].[C-]#N.[C-]#N.[C-]#N.[C-]#N.[C-]#N.[Fe+2].[Na+].[Na+]`, the max response in test [8] (setting [11]) is -17.1%; in [8] (setting [12]), -18.4%. Further, in test [9], the viability change is -16%.

With `O=C1C2CC=CCC2C(=O)N1SC(Cl)(Cl)C(Cl)Cl` (stereo not given), the max response in test [3] was -16%.

Turning to `CC(C)OP(=O)(OC(C)C)SCCNS(=O)(=O)c1ccccc1`, the max response is 21.8% in test [2] and -6.67% in test [3].
